Assay results taken from patent EP4813381A1, “PHARMACEUTICAL USE OF GUAIANE SESQUITERPENE DERIVATIVE” (Nanjing University Of Chinese Medicine, priority 2023, dated 2025).
For at least one compound, name, drawing or mass did not settle the structure.

Experiment: Conversion rate of salt-form prodrugs to parent compound in HEPES buffer solution
Assay type: physicochemical
Details: conversion to Compound 1, HEPES buffer pH 7.4, 37 °C
Procedure: Adjust the pH to 7.4 using 0.5 M NaOH, then dilute to a final volume 100 mL with distilled water.
Sample Analysis: Dissolve 0.6 mg of the compound in 250 µl of deionized water separately. Add 250 µl of mouse serum or HEPES 7.4 solution to the sample, incubate at a constant temperature of 37 °C, and collect samples at different time points. Pipette 20 µl of the sample to an EP tube, add 60 µl of methanol, vortex to mix thoroughly, and centrifuge at 12,000 rpm at 4 °C for 10 min. At 1 h, 2 h, 4 h, 8 h, and 12 h respectively, collect the supernatant for HPLC analysis. Inject 10 µL of sample and record the corresponding peak areas.

Work on `CCN1CCN(C[C@@H]2C(=O)O[C@H]3[C@H]2CC[C@@]2(C)C[C@]24CC[C@@](C)(O)[C@H]34)CC1` [compound 27] yielded a Release rate (1 h) of 6.9%, a Release rate (2 h) of 15.4% and a Release rate (4 h) of 27.4%. The Release rate (8 h) was 42.2% and the Release rate (12 h) was 54.8%.
